# The supplement of paper PMC8166895
# Where a name gives a salt, the structure may show the parent alone. The list shows a part of the results. Most entries show no effect beyond the scatter of the controls.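 Differential scanning fluorimetry gave melting temperatures in a one-replicate pilot screen of a library of approved drugs plus clinical or known-target compounds. Hits increasing melting point at least 2 °C were the strongest stabilizers, while negative shifts signify destabilization.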 Where a SMILES comes first, the peptide text is derived from it. The star is where a group is joined. Cbz = O=C(OCc1ccccc1)*
# Test system: SARS-CoV-2 main protease (Mpro, nsp5)
# Assay: thermal shift ΔTm of Mpro relative to plate average Tm; higher = stronger thermal stabilization of Mpro (binding)
# Settings: 10 µM; protein concentration 1 µM
row,Compound,thermal shift ΔTm of Mpro [°C]
1,CC(C)(O)CC[C@@H](O)[C@](C)(O)[C@H]1CC[C@@]2(O)C3=CC(=O)[C@@H]4C[C@@H](O)[C@@H](O)C[C@]4(C)[C@H]3CC[C@]12C [20-Hydroxyecdysone],-0.00772
2,CNC(=O)c1nn(C)c2c1C(C)(C)Cc1cnc(Nc3ccc(N4CCN(C)CC4)cc3)nc1-2,-0.226
3,O=C(O)CCN1C(=O)/C(=C/c2ccc(-c3ccc([N+](=O)[O-])cc3)o2)SC1=S,-0.000678
4,Cc1cc(N2C[C@@H](C)N[C@@H](C)C2)ncc1-c1ccc(-c2nc3c(ccn3C)c(=O)[nH]2)cc1,-0.0544
5,O=C(/C=C/c1ccc2ccc(C(F)(F)F)cc2n1)c1ccncc1,-0.0141
6,CN1CCN(c2cccc(Nc3nc4c(-c5ccc(S(C)(=O)=O)cc5)cccn4n3)c2)CC1,0.0758
7,CN(Cc1ccccc1)C(=O)C1CCCN(Cc2ccc(C(F)(F)F)cc2)C1 (stereo unspecified) [T.cruzi Inhibitor],0.0174
8,COc1cc2nc(N3CCN(C(=O)C4CCCO4)CC3)nc(N)c2cc1OC (stereo unspecified) [Terazosin hydrochloride],-0.16
9,COc1cc2nc(N3CCN(C(=O)C4CCCO4)CC3)nc(N)c2cc1OC (stereo unspecified) [Terazosin HCl],0.117
10,Nc1ncnc2c1c(-c1ccc(Oc3ccccc3)cc1)nn2C1CCCC1,-0.353
11,NC(=O)[C@@H]1CC[C@@H]2CN1C(=O)N2OS(=O)(=O)O [Avibactam sodium],0.0705
12,CN[C@@H](C)C(=O)N[C@H](C(=O)N1CCC[C@H]1C(=O)Nc1snnc1-c1ccccc1)C1CCCCC1,-0.107
13,CN(C)C/C=C/C(=O)Nc1ccc(C(=O)N2CCC[C@@H](Nc3ncc(Cl)c(-c4c[nH]c5ccccc45)n3)C2)cc1,-0.0686
14,COC(=O)[C@@H](N)Cc1cnc[nH]1 [Methyl L-histidinate dihydrochloride],-0.0787
15,Cc1ccc(C2=Nc3ccc(Cl)cc3OC2)cc1,-0.0996
16,COc1cc(OC)c(C=C2C(=O)Nc3ccccc32)c(OC)c1,0.158
17,CN1CCCCC1CCN1c2ccccc2Sc2ccc([S+](C)[O-])cc21 (stereo unspecified) [Mesoridazine Besylate],-0.0415
18,CC(=O)OCOC(=O)CN(CC(=O)OCOC(C)=O)c1ccccc1OCCOc1ccccc1N(CC(=O)OCOC(C)=O)CC(=O)OCOC(C)=O,-0.224
19,O=S(=O)(c1ccccc1)c1cnc2c(N3CCNCC3)cccc2c1,-0.109
20,COc1ccc(-n2c(C)c([N+](=O)[O-])c3ccc(O)cc32)cc1,-0.214
21,COc1ccc(C2(CNC(=O)c3ccc(NC(=O)c4ccco4)cc3)CCOCC2)cc1,-0.011

row,Compound,thermal shift ΔTm of Mpro [°C]
1,O=C(O[C@H]1CN2CCC1CC2)N1CCc2ccccc2[C@@H]1c1ccccc1 [Solifenacin succinate],-0.173
2,NC(=O)N/N=C/c1ccc([N+](=O)[O-])o1 [Nitrofural],0.0688
3,CC1=CC(=O)NS(=O)(=O)O1 [Acesulfame Potassium],-0.11
4,CCCC(=O)Nc1ncnc2c1ncn2[C@@H]1O[C@@H]2COP(=O)(O)O[C@H]2[C@H]1OC(=O)CCC [Dibutyryl-cAMP (Bucladesine)],-0.147
5,CN(C)CCC[C@@]1(c2ccc(F)cc2)OCc2cc(C#N)ccc21 [Escitalopram Oxalate],0.105
6,O=C(CNC(=O)c1ccc(Cl)cc1)NO [Benurestat],0.179
7,CN1CCCC(n2nc(Cc3ccc(Cl)cc3)c3ccccc3c2=O)CC1 (stereo unspecified) [Azelastine HCl],-0.0897
8,CCN1CCN(C(=O)N[C@@H](C(=O)N[C@@H]2C(=O)N3[C@@H]2SC(C)(C)[C@@H]3C(=O)O)c2ccccc2)C(=O)C1=O [Piperacillin Sodium],-0.113
9,CN(NC(=O)CC(=O)NN(C)C(=S)c1ccccc1)C(=S)c1ccccc1 [Elesclomol (STA-4783)],0.0338
10,O=C(O)c1cccc(N=Nc2c(O)[nH]c3ccc(S(=O)(=O)NCc4ccc(F)cc4)cc23)c1,-0.0221
11,C[C@]12N[C@H](Cc3ccccc31)c1ccccc12 [MK-801 (Dizocilpine)],0.0162
12,O=Nc1c(-c2c(O)[nH]c3cc(Br)ccc23)[nH]c2ccccc12,0.581
13,CCCCc1nc2ccc(NC(=O)NC3CCCCC3)cc2n1Cc1ccc(-c2ccccc2C(=O)O)cc1,-0.0318
14,CO[C@@H]1[C@@H](OC(N)=O)[C@@H](O)[C@H](Oc2ccc3c(O)c(NC(=O)c4ccc(O)c(CC=C(C)C)c4)c(=O)oc3c2C)OC1(C)C [Novobiocin Sodium],0.0418
15,"CC1(C)OC(=O)NC1=O [5,5-Dimethyloxazolidine-2,4-dione]",0.176
16,C[C@H](Nc1ncnc2[nH]cnc12)c1nc2ccc(F)cc2c(=O)n1-c1ccccc1 [Acalisib],0.0676
17,CNc1nc(Nc2cnn(C3CCN(C4COC4)CC3F)c2Cl)ncc1C(F)(F)F (stereo unspecified),-0.224
18,CCCCNNC(=O)c1ccc(Br)cc1,0.0262
19,CCC[C@H](N[C@@H](C)C(=O)N1[C@H](C(=O)O)C[C@@H]2CCCC[C@@H]21)C(=O)OCC [Perindopril erbumine],0.0716
20,Fc1ccc(-c2nc3n(c2-c2ccncc2)CCS3)cc1,0.143
21,CCCC(=O)O[C@]1(C(=O)COC(C)=O)CC[C@H]2[C@@H]3C[C@H](F)C4=CC(=O)C=C[C@]4(C)[C@@]3(F)[C@@H](O)C[C@@]21C [Difluprednate],-0.141

row,Compound,thermal shift ΔTm of Mpro [°C]
1,COc1ccc(NS(=O)(=O)c2ccc(N)cc2)nn1 [Sulfamethoxypyridazine],-0.0912
2,Nc1ccc(C(=O)NCC(=O)O)cc1 [4-Aminohippuric Acid],-0.0637
3,Nc1ccc(C(=O)NCC(=O)O)cc1 [Sodium 4-aminohippurate Hydrate],-0.225
4,OC[C@H]1O[C@@H](Oc2ccc(O)cc2)[C@H](O)[C@@H](O)[C@@H]1O [Arbutin],-0.174
5,O=C(c1ccc(C(=O)N2CCC(N3CCCC3)CC2)c(Nc2ccccc2)c1)N1CCC(N2CCCC2)CC1,-0.0943
6,O=C(c1ccc(NS(=O)(=O)c2cccc3cccnc23)cc1)N1CCN(CC2CC2)CC1 [Mitapivat],0.136
7,Nc1ccc(S(=O)(=O)c2ccc(N)cc2)cc1 [Sulphadione],-0.0164
8,CN(C)CCc1c[nH]c2ccc(Cn3cncn3)cc12 [Rizatriptan Benzoate],7.83e-05
9,CCC(CC)Nc1cc(C)nc(Oc2c(C)cc(C)cc2C)c1C,-0.127
10,Oc1cc(Cl)ccc1Oc1ccc(Cl)cc1Cl [Triclosan],0.112
11,CN(C)c1ccc(C(c2ccc(N(C)C)cc2)c2cc([N+](=O)[O-])ccc2Cl)cc1,0.00341
12,CC(C)C[C@@H](C=O)NC(=O)[C@H](CC(C)C)NC(=O)[C@H](CC(C)C)NC(=O)OCc1ccccc1 (Cbz-Leu-Leu-Leu-aldehyde),2.7
13,COc1ccc(-c2nc(NS(=O)(=O)c3ccc(C(C)(C)C)cc3)c(Oc3ccccc3OC)c(OC[C@H](O)CO)n2)cc1,-0.26
14,CCOC(=O)c1ccc(OCCC2CCN(c3ccc(C)nn3)CC2)cc1 [Pirodavir],-0.0956
15,N=C(N)NC(=N)N1CCOCC1 [Moroxydine HCl],0.0844
16,O=C(Nc1ncc([N+](=O)[O-])s1)c1ccccc1O [Tizoxanide],0.266
17,CC(C)(C#N)c1ccc(N2C(=O)OCc3cnc4ccc(-c5cnc6ccccc6c5)cc4c32)cc1,-0.0454
18,CCN(CC)Cc1ccc2cc(COC(=O)Nc3ccc(C(=O)NO)cc3)ccc2c1 [Givinostat (ITF2357)],-0.188
19,CC(=O)Oc1cccc2c1C(=O)c1c(OC(C)=O)cc(C(=O)O)cc1C2=O [Diacerein],-0.0708
20,CCn1cc(C(=O)O)c(=O)c2cnc(N3CCNCC3)nc21 [Pipemidic acid],0.15
21,COc1cc2c(cc1OC)/C(=C/c1ccc(O)cc1)C(=O)N2,-0.0568

# Rewritten with bars between the fields: part of the list above.
row | Compound | thermal shift ΔTm of Mpro [°C]
12 | CC(C)C[C@@H](C=O)NC(=O)[C@H](CC(C)C)NC(=O)[C@H](CC(C)C)NC(=O)OCc1ccccc1 (Cbz-Leu-Leu-Leu-aldehyde) | 2.7
19 | CC(=O)Oc1cccc2c1C(=O)c1c(OC(C)=O)cc(C(=O)O)cc1C2=O [Diacerein] | -0.0708

# (next part)

row,Compound,thermal shift ΔTm of Mpro [°C]
1,O=C(Nc1cc(C(F)(F)F)ccc1N1CCCCC1)c1ccncc1,-0.0226
2,CCCCS(=O)(=O)N[C@@H](Cc1ccc(OCCCCC2CCNCC2)cc1)C(=O)O [Tirofiban hydrochloride monohydrate],0.335
3,CNCCN1CCC(OCc2ccccc2)CC1,0.293
4,COc1nc(C)nc(Cl)c1NC1=NCCN1 [Moxonidine],0.0676
5,C[C@](O)(COc1ccc(C#N)cc1)C(=O)Nc1ccc(C#N)c(C(F)(F)F)c1,0.0235
6,Cc1ccc(NC(=O)c2ccc(CN3CCN(C)CC3)cc2)cc1Nc1nc(-c2cccnc2)cs1 [Masitinib (AB1010)],0.072
7,COc1ccc(OC)c(CN(C(C)=O)c2cc(F)ccc2Oc2ccccc2)c1,0.0235
8,CCC(C)C(C(=O)OCC[N+](C)(CC)CC)c1ccccc1 (stereo unspecified) [Valethamate bromide],0.104
9,Cc1ccc(S(=O)(=O)NC(=O)NN2CC3CCCC3C2)cc1 (stereo unspecified) [Gliclazide],-0.104
10,CC1(C)S[C@@H]2[C@H](NC(=O)Cc3ccccc3)C(=O)N2[C@H]1C(=O)O.CCN(CC)CCOC(=O)c1ccc(N)cc1 [Procaine penicillin G],0.209
11,O=c1c(O)c(-c2cc(O)c(O)c(O)c2)oc2cc(O)cc(O)c12 [Myricetin],-0.39
12,Cc1cc(Cn2cnc3c2CC(C(=O)O)N(C(=O)C(c2ccccc2)c2ccccc2)C3)ccc1N(C)C (stereo unspecified),-0.00692
13,C#CCN(C)Cc1ccccc1 [Pargyline],0.0983
14,CN(C)c1ccc(C(=O)NCCCCCCC(=O)NO)cc1,0.0568
15,CCCCCC(C)N (stereo unspecified) [2-Aminoheptane],0.149
16,CCCCCc1ccc(C)cc1O [Amylmetacresol],-0.00519
17,COc1ccc2cc(CCC(C)=O)ccc2c1 [Nabumetone],-0.0191
18,COc1ccc(-c2oc3c(CC=C(C)C)c(O[C@@H]4O[C@H](CO)[C@@H](O)[C@H](O)[C@H]4O)cc(O)c3c(=O)c2O[C@@H]2O[C@@H](C)[C@H](O)[C@@H](O)[C@H]2O)cc1 [Icariin],-0.209

# Reformatted as tab-separated lines: entries from further up
row	Compound	thermal shift ΔTm of Mpro [°C]
2	CNC(=O)c1nn(C)c2c1C(C)(C)Cc1cnc(Nc3ccc(N4CCN(C)CC4)cc3)nc1-2	-0.226
18	CC(=O)OCOC(=O)CN(CC(=O)OCOC(C)=O)c1ccccc1OCCOc1ccccc1N(CC(=O)OCOC(C)=O)CC(=O)OCOC(C)=O	-0.224
17	COc1ccc2cc(CCC(C)=O)ccc2c1 [Nabumetone]	-0.0191
